Data published in PMC8663781.
No constants are given. Whether binding was seen depends on the method and setting. In cells and extracts the contact can be indirect. Some binding calls cover weakened binding; strength is not graded here.

Protein sequences, listed by entry. Tags and fused reporters are not part of them.
UniProt P25490: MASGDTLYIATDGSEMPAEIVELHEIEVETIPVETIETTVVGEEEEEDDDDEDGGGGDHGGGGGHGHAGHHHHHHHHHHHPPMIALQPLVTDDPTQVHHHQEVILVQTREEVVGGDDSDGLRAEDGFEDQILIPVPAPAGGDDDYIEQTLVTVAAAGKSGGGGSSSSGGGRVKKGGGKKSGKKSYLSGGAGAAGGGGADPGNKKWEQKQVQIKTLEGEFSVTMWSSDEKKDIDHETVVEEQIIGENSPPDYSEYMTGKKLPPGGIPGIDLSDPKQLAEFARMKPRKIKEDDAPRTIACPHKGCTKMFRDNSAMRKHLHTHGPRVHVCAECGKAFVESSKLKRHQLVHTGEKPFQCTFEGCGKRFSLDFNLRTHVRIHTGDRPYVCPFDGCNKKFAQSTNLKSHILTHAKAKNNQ

Biological target: Yin Yang 1 (YY1) (human (endogenous in HEK293T)) (UniProt P25490)
Assay: co-IP; endogenous proteins in HEK293T cell lysate; capture with YY1 antibody overnight at 4°C, Protein A/G magnetic beads (Pierce Classic Magnetic IP/Co-IP Kit), Western blot of the eluate

binding: binds
B1: T-box transcription factor 21 (T-bet) (protein, UniProt Q9UL17 1-535)
chain: MGIVEPGCGDMLTGTEPMPGSDEGRAPGADPQHRYFYPEPGAQDADERRGGGSLGSPYPGGALVPAPPSRFLGAYAYPPRPQAAGFPGAGESFPPPADAEGYQPGEGYAAPDPRAGLYPGPREDYALPAGLEVSGKLRVALNNHLLWSKFNQHQTEMIITKQGRRMFPFLSFTVAGLEPTSHYRMFVDVVLVDQHHWRYQSGKWVQCGKAEGSMPGNRLYVHPDSPNTGAHWMRQEVSFGKLKLTNNKGASNNVTQMIVLQSLHKYQPRLHIVEVNDGEPEAACNASNTHIFTFQETQFIAVTAYQNAEITQLKIDNNPFAKGFRENFESMYTSVDTSIPSPPGPNCQFLGGDHYSPLLPNQYPVPSRFYPDLPGQAKDVVPQAYWLGAPRDHSYEAEFRAVSMKPAFLPSAPGPTMSYYRGQEVLAPGAGWPVAPQYPPKMGPASWFRPMRTLPMEPGPGGSEGRGPEDQGPPLVWTEIAPIRPESSDSGLGEGDSKRRRVSPYPSSGDSSSPAGAPSPFDKEAEGQFYNYFPN
